Laboratory results from article PMC8403986.
These are yes or no findings as the source states them, for the method shown. For some assays here: Binding seen in cells or lysates may run through a third protein. Some entries that bind do so weakly or less than the wild type.

Amino acid sequences for entries named in this document (tags omitted). A change or cut given only in a name is not applied to a line headed by its entry. Chains listed by the source or under a name are the forms on record and can include a tag or linker.
AXIN1-dStrepII (axis inhibition protein 1, wild type, C-terminal double-StrepII tag) (O15169-2, form named): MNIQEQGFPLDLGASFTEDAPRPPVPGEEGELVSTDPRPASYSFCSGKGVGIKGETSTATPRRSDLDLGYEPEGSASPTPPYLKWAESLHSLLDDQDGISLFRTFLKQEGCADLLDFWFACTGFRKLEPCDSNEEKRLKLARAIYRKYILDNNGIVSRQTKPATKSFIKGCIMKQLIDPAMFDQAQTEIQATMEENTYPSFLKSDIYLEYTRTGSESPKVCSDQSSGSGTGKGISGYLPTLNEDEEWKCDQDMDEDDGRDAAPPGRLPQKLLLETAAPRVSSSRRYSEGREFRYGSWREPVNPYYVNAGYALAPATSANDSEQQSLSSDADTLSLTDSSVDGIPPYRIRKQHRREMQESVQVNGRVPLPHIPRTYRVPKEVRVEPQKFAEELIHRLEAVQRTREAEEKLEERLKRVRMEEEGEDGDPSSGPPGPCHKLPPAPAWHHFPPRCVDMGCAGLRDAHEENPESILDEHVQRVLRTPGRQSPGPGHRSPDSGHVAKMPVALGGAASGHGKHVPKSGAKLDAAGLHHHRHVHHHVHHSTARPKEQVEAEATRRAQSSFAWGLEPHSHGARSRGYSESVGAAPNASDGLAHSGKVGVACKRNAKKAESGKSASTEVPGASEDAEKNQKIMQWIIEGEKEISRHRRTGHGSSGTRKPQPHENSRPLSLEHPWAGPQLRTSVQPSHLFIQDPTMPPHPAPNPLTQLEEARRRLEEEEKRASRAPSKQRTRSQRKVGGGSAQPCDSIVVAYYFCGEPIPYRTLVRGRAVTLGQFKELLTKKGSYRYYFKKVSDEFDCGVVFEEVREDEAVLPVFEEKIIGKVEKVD
UniProt P25054: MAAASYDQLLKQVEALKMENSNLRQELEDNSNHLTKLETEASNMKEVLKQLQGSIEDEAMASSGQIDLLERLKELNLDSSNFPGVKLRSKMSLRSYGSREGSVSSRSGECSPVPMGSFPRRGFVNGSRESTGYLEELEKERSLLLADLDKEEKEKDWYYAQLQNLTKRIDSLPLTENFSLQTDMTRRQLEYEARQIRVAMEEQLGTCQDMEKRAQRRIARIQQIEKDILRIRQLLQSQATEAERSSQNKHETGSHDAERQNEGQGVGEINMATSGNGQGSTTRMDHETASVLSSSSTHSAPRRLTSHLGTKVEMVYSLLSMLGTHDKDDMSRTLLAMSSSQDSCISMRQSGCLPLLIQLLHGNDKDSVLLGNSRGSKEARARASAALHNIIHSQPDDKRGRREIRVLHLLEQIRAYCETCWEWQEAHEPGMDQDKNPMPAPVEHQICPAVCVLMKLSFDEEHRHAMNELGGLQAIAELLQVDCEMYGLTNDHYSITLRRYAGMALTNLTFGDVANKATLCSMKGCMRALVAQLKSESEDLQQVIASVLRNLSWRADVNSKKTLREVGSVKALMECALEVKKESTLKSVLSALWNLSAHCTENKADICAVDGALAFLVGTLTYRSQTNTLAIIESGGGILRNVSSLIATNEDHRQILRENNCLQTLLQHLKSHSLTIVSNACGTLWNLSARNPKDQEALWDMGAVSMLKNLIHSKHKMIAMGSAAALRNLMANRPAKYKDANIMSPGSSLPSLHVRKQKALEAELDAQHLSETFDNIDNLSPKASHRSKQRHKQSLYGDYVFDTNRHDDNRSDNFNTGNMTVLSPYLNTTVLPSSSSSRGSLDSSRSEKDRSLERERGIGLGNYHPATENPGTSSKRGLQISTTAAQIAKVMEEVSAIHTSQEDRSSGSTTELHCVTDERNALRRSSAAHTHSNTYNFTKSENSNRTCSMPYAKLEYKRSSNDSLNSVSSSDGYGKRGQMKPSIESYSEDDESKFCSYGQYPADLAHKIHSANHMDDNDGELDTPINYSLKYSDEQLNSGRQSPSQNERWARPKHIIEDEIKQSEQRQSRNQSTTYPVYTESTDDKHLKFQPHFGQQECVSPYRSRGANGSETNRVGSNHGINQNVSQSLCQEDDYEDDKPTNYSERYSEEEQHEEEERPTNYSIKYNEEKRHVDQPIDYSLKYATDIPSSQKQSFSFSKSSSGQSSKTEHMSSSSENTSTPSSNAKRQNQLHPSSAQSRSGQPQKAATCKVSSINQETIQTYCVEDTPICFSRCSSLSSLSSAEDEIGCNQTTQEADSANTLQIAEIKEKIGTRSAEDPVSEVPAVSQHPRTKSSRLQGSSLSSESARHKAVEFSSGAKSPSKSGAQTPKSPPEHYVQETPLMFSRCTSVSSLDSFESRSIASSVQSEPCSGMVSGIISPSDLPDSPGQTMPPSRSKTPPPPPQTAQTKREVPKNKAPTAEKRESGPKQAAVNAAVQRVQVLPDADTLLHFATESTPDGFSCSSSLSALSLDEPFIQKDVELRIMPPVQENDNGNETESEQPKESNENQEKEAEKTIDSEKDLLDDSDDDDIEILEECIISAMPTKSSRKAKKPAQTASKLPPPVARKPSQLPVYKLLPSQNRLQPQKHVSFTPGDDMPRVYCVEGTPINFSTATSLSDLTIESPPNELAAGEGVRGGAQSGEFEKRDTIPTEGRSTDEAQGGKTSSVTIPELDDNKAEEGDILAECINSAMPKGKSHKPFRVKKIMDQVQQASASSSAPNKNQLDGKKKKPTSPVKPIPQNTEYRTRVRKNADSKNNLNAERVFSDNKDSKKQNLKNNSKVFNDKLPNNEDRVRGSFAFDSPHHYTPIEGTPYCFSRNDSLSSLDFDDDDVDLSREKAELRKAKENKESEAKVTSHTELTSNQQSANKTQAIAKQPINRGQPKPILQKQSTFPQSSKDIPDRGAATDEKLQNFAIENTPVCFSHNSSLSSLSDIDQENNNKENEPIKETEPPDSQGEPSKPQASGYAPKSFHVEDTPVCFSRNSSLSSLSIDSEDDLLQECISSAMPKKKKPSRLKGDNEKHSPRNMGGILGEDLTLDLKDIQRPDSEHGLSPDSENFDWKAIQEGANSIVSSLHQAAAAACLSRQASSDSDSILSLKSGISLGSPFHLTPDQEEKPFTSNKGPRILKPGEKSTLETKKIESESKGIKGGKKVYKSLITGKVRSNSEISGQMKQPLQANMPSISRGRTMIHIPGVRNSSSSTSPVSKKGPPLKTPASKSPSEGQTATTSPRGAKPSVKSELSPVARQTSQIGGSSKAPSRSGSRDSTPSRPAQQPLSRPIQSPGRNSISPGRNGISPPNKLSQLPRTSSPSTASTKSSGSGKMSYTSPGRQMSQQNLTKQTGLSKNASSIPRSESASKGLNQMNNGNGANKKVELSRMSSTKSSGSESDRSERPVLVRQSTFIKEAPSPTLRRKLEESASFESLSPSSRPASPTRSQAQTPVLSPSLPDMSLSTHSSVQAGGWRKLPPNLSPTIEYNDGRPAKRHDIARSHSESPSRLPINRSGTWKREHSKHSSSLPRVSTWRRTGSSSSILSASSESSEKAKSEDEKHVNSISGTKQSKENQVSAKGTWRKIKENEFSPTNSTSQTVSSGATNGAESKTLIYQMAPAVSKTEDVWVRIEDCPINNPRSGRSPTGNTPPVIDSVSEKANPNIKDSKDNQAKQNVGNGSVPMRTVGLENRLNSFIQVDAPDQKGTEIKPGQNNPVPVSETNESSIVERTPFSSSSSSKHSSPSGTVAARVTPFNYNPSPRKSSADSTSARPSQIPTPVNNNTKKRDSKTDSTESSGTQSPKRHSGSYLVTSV
UniProt P35222: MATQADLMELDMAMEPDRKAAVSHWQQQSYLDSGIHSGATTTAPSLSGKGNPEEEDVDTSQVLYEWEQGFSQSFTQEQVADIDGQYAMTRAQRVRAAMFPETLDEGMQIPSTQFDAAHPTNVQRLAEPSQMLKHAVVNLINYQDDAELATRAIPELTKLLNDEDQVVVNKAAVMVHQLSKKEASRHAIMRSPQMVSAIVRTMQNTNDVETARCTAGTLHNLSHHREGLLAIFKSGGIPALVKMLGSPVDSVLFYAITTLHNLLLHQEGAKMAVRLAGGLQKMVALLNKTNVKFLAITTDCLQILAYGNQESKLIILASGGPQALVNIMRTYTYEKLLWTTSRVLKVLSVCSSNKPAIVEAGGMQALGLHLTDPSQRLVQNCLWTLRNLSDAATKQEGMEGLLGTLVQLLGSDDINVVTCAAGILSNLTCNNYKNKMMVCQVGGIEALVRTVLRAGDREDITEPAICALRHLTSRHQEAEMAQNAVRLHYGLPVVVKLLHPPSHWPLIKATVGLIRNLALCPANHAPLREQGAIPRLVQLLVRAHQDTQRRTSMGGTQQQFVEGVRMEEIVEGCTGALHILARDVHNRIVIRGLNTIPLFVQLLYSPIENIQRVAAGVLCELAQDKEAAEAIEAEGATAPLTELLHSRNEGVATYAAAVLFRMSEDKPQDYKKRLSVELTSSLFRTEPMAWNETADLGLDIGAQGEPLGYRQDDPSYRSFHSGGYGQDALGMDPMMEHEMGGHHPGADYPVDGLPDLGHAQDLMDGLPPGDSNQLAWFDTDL

Assays:
[1] = molecular target: AXIN1-dStrepII (axis inhibition protein 1, wild type, C-terminal double-StrepII tag) (human) (UniProt O15169); assay: pull-down; Strep-Tactin Sepharose purification via AXIN1-dStrepII (wild type or M3) from lysates of Sf9 cells co-expressing an APC variant, CK1α, GSK3β and β-catenin; 50 mM HEPES-NaOH pH 7.5, 150 mM NaCl, 4°C, 2 h; SDS-PAGE with Coomassie and immunoblot
[2] = molecular target: AXIN1-dStrepII (axis inhibition protein 1, wild type, C-terminal double-StrepII tag) (human) (UniProt O15169); assay: mass photometry; SEC-MALS input and elution fractions of the affinity-purified DC, diluted to A280 of about 0.01 (<100 nM); 50 mM HEPES-NaOH pH 7.5, 150 mM NaCl; both purified
[3] = molecular target: AXIN1-dStrepII (axis inhibition protein 1, wild type, C-terminal double-StrepII tag) (human) (UniProt O15169); assay: SEC-MALS; affinity-purified DC (wild-type or M3 AXIN1) at several dilutions; WTC-100N5 column; 50 mM HEPES-NaOH pH 7.5, 150 mM NaCl, 2 mM TCEP, 5% glycerol; fractions on SDS-PAGE; both purified
[4] = molecular target: AXIN1-dStrepII (axis inhibition protein 1, wild type, C-terminal double-StrepII tag) (human) (UniProt O15169); assay: pull-down; as a1, but Sf9 cells co-expressing AXIN1-dStrepII, CK1α, GSK3β and β-catenin without APC

| Substance | binding [1] | binding [2] | binding [3] | binding [4] |
| --- | --- | --- | --- | --- |
| APC Q1338* (truncation variant from SW480 cells) (from UniProt P25054 1-1337) (domain or fragment) | binds |  |  |  |
| APC S811* (truncation variant from COLO-320DM cells) (from UniProt P25054 1-810) (domain or fragment) | binds weakly |  |  |  |
| APC T1556* (truncation variant from COLO-205 cells) (from UniProt P25054 1-1555) (domain or fragment) | binds |  |  |  |
| AXIN1-dStrepII (axis inhibition protein 1, wild type, C-terminal double-StrepII tag) (from UniProt O15169-2 1-826) |  | binds | binds |  |
| β-catenin, full length, co-expressed in the destruction complex (from UniProt P35222 1-781) | binds |  | binds | binds |
